The text below walks through data of patent US10188659B2, “IGF-1R signaling pathway inhibitors useful in the treatment of neurodegenerative diseases” (YISSUM RESEARCH DEVELOPMENT COMPANY OF THE HEBREW …, priority 2013, dated 2019).

Entries after “also recorded” stand apart in the source; their conditions may differ.

The test system of one data set is CF512 worms. The data set is described as follows: Lifespan analysis, CF512 worms. Type of data set: in vivo, Caenorhabditis elegans. As to conditions: 600 μM.
Data set [1] concerns wild-type worms (strain N2). The experiment in a line: Lifespan analysis, wild-type worms. Type of data set: in vivo, Caenorhabditis elegans. As to conditions: strain N2, daily treatment.

Take `Oc1cc(CNC(=S)/C=C/c2ccc(O)c(O)c2Br)cc(O)c1O` [Compound 39]: the lifespan entry is reported as “no effect on lifespan; also recorded: indistinguishable lifespans” with CF512 worms and “indistinguishable from that of their untreated counterparts; also recorded: not affected” in data set [1].
